This note sets out measurements from paper PMC5561105.

Amino acid sequences for entries named in this document (tags omitted).
UniProt Q96KQ7: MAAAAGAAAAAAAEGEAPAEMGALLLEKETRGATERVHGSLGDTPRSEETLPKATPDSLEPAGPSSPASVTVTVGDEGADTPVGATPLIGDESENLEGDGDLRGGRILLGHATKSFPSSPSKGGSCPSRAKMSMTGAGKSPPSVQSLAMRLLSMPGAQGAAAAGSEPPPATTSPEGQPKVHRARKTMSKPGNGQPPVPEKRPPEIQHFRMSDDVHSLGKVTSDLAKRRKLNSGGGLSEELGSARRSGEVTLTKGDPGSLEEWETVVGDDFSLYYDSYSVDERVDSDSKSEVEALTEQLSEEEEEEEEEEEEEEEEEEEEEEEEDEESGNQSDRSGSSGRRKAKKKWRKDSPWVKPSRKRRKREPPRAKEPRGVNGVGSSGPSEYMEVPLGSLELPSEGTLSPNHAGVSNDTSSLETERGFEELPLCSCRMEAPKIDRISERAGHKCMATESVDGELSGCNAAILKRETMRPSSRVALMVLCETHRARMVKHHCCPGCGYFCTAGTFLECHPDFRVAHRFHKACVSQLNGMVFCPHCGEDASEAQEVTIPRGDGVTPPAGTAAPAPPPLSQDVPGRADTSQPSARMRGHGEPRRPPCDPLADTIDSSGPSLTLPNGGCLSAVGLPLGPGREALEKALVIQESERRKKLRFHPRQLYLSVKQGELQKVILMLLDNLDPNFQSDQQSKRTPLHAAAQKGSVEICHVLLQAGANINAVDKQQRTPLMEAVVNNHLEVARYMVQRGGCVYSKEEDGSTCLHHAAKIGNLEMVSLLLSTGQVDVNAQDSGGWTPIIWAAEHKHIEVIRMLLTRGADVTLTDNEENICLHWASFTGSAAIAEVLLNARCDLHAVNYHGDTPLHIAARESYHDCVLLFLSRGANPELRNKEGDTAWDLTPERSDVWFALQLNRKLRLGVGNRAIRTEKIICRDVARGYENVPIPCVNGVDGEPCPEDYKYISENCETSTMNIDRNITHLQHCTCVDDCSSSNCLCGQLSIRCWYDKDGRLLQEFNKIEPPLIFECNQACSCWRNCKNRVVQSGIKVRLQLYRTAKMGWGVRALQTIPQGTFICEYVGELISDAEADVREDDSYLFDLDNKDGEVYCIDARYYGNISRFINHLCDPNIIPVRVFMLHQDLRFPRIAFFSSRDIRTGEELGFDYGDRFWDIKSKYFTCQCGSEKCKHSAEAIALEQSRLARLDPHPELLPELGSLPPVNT
UniProt P25490: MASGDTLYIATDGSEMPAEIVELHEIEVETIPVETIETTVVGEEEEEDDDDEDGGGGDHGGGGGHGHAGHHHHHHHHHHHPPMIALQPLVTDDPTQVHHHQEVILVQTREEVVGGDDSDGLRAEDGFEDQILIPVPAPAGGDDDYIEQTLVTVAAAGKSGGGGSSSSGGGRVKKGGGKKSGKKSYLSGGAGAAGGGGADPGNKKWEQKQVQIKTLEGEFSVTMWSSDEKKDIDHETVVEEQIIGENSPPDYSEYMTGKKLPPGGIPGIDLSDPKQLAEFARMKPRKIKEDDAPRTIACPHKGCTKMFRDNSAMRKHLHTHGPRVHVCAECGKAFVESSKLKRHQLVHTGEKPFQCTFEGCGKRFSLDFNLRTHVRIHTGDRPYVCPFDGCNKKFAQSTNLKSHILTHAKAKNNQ
UniProt Q13547: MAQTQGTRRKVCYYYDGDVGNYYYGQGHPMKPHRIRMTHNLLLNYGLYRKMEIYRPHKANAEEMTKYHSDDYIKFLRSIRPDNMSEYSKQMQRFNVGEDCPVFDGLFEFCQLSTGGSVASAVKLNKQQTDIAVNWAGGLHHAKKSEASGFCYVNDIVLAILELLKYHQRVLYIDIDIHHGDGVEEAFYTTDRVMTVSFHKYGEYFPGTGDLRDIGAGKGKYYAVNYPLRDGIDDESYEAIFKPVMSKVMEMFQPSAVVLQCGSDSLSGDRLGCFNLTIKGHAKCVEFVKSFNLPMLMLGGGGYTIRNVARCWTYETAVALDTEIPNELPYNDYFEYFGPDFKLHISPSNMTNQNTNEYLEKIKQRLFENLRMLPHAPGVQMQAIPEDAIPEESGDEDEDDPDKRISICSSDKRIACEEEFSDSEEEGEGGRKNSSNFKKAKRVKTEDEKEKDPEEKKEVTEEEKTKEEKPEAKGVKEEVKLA

No constants are given. Whether binding was seen depends on the method and setting. Binding seen in cells or lysates may run through a third protein. Some results given as binding are weak or reduced against the parent protein; the word gives no strength.

One assay has as its target G9a (human) (UniProt Q96KQ7). Description: co-IP; total cell extracts of 293T and MDA-MB-231 cells, precleared with protein A-agarose; incubated with anti-G9a or anti-YY1 overnight at 4 °C, then protein A/G-agarose beads; immunoblot with anti-YY1 or anti-HDAC1.
Assay [1] has as its target YY1 (human (in 293T and MDA-MB-231 cells)) (UniProt P25490). The assay is described as above.

Take YY1 (from UniProt P25490 1-414): the binding result with G9a (human) was “binds”. Consider HDAC1 (from UniProt Q13547 1-482), for which the binding entry (in the assay with G9a (human); in assay [1]) was “binds” in each case.
